Some of the results follow.
What was measured:
Experiment in all cases: glycan array binding signal (z-score within array); higher = stronger binding
Conditions in all cases: glycan notation: IUPAC condensed, linker removed
[1] = molecular target: Neu5Ac(a2-6)GlcNAc(b1-4)GlcNAc
Procedure, shortened: (§1)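 Glycan array binding is given as a within-array Z-score, which can be read as non-binding when negative. The arrays, 3228 of them, came from the Consortium for Functional Glycomics database and were retained only where the protein sequence was available. Z-scores were averaged across arrays of the same protein sequence at different concentrations or buffers and across linkers.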

[2] = molecular target: Neu5Ac(a2-6)GlcNAc(b1-4)GlcNAc(b1-4)GlcNAc
Procedure, shortened: as §1

Neu5Ac(a2-8)Neu5Ac = molecular target: Neu5Ac(a2-8)Neu5Ac
Procedure, shortened: as §1

[3] = molecular target: Neu5Ac(a2-8)Neu5Ac(a2-3)Gal(b1-3)GalNAc(b1-4)[Neu5Ac(a2-3)]Gal(b1-4)Glc
Procedure, shortened: as §1

[4] = molecular target: Neu5Ac(a2-8)Neu5Ac(a2-3)Gal(b1-3)GalNAc(b1-4)[Neu5Ac(a2-8)Neu5Ac(a2-3)]Gal(b1-4)Glc
Procedure, shortened: as §1

[5] = molecular target: Neu5Ac(a2-8)Neu5Ac(a2-3)Gal(b1-4)Glc
Procedure, shortened: as §1

[6] = molecular target: Neu5Ac(a2-8)Neu5Ac(a2-3)Gal(b1-4)GlcNAc
Procedure, shortened: as §1

[7] = molecular target: Neu5Ac(a2-8)Neu5Ac(a2-3)[Gal(b1-3)GalNAc(b1-4)]Gal(b1-4)Glc
Procedure, shortened: as §1

[8] = molecular target: Neu5Ac(a2-8)Neu5Ac(a2-3)[GalNAc(b1-4)]Gal(b1-4)Glc
Procedure, shortened: as §1

[9] = molecular target: Neu5Ac(a2-8)Neu5Ac(a2-8)Neu5Ac
Procedure, shortened: as §1

[10] = molecular target: Neu5Ac(a2-8)Neu5Ac(a2-8)Neu5Ac(a2-3)Gal(b1-4)Glc
Procedure, shortened: as §1

[11] = molecular target: Neu5Ac(a2-8)Neu5Ac(a2-8)Neu5Ac(a2-3)[Gal(b1-3)GalNAc(b1-4)]Gal(b1-4)Glc
Procedure, shortened: as §1

[12] = molecular target: Neu5Ac(a2-8)Neu5Ac(a2-8)Neu5Ac(a2-3)[GalNAc(b1-4)]Gal(b1-4)Glc
Procedure, shortened: as §1

[13] = molecular target: Neu5Ac(a2-8)Neu5Ac(a2-8)Neu5Ac(a2-8)Neu5Ac(a2-3)[GalNAc(b1-4)]Gal(b1-4)Glc
Procedure, shortened: as §1

[14] = molecular target: Neu5Ac(a2-8)Neu5Gc(a2-3)Gal(b1-4)GlcNAc
Procedure, shortened: as §1

[15] = molecular target: Neu5Ac(b2-6)Gal(b1-4)GlcNAc
Procedure, shortened: as §1

Neu5Ac(b2-6)GalNAc = molecular target: Neu5Ac(b2-6)GalNAc
Procedure, shortened: as §1

[16] = molecular target: Neu5Ac9Ac(a2-3)Gal(b1-3)GlcNAc
Procedure, shortened: as §1

[17] = molecular target: Neu5Ac9Ac(a2-3)Gal(b1-4)GlcNAc
Procedure, shortened: as §1

[18] = molecular target: Neu5Ac9Ac(a2-6)Gal(b1-4)GlcNAc
Procedure, shortened: as §1

[19] = molecular target: Neu5Gc(a2-3)Gal(b1-3)GlcNAc
Procedure, shortened: as §1

[20] = molecular target: Neu5Gc(a2-3)Gal(b1-3)[Fuc(a1-4)]GlcNAc
Procedure, shortened: as §1

Neu5Gc(a2-3)Gal(b1-4)Glc = molecular target: Neu5Gc(a2-3)Gal(b1-4)Glc
Procedure, shortened: as §1

[21] = molecular target: Neu5Gc(a2-3)Gal(b1-4)GlcNAc
Procedure, shortened: as §1

[22] = molecular target: Neu5Gc(a2-3)Gal(b1-4)GlcNAc(b1-3)Gal(b1-4)GlcNAc(b1-2)Man(a1-3)[Neu5Gc(a2-3)Gal(b1-4)GlcNAc(b1-3)Gal(b1-4)GlcNAc(b1-2)Man(a1-6)]Man(b1-4)GlcNAc(b1-4)GlcNAc
Procedure, shortened: as §1

[23] = molecular target: Neu5Gc(a2-3)Gal(b1-4)[Fuc(a1-3)]GlcNAc
Procedure, shortened: as §1

[24] = molecular target: Neu5Gc(a2-6)Gal(b1-4)GlcNAc
Procedure, shortened: as §1

Neu5Gc(a2-6)GalNAc = molecular target: Neu5Gc(a2-6)GalNAc
Procedure, shortened: as §1

[25] = molecular target: Neu5Gc(a2-8)Neu5Ac(a2-3)Gal(b1-4)GlcNAc
Procedure, shortened: as §1

[26] = molecular target: Neu5Gc(a2-8)Neu5Gc(a2-3)Gal(b1-4)GlcNAc
Procedure, shortened: as §1

[27] = molecular target: Neu5Gc(a2-8)Neu5Gc(a2-3)Gal(b1-4)GlcNAc(b1-3)Gal(b1-4)GlcNAc
Procedure, shortened: as §1

[28] = molecular target: Neu5Gc(a2-8)Neu5Gc(a2-6)Gal(b1-4)GlcNAc
Procedure, shortened: as §1

[29] = molecular target: Neu5Gc(b2-6)Gal(b1-4)GlcNAc
Procedure, shortened: as §1

B1: Epa21 (Candida glabrata) (protein)
chain: MGSSHHHHHHSSGLVPRGSHMASTPNIESHPQGCSPVDTSGIKPGLKMDLYRFPITPPGTGCWSWDWLTVTPDFPRSGYWKWPKIAEVDGVVGPLHLDSGHPTCDPLTSVLPHGFNYLQSITTTNFTMVLHGYFVPKQSGKYTFEFKADDALLLNLGAGNAFSCCDYNNSQYNQGEYLAYAIWSKNNQTATLYLEKGIYYPIRVFYHNRCCGAYMDVVYYFNDSPIPNRDFSGLLFSIPDSDSCDANI
glycan array binding signal (z-score) [1]: -0.441
glycan array binding signal (z-score) [2]: -0.334
glycan array binding signal (z-score) (Neu5Ac(a2-8)Neu5Ac): 0.145
glycan array binding signal (z-score) [3]: -0.055
glycan array binding signal (z-score) [4]: 0.074
glycan array binding signal (z-score) [5]: -0.694
glycan array binding signal (z-score) [6]: -0.544
glycan array binding signal (z-score) [7]: -0.557
glycan array binding signal (z-score) [8]: -0.329
glycan array binding signal (z-score) [9]: -0.051
glycan array binding signal (z-score) [10]: 0.307
glycan array binding signal (z-score) [11]: 0.878
glycan array binding signal (z-score) [12]: 0.189
glycan array binding signal (z-score) [13]: -0.229
glycan array binding signal (z-score) [14]: -0.679
glycan array binding signal (z-score) [15]: -0.57
glycan array binding signal (z-score) (Neu5Ac(b2-6)GalNAc): -0.743
glycan array binding signal (z-score) [16]: -0.318
glycan array binding signal (z-score) [17]: -0.077
glycan array binding signal (z-score) [18]: -0.473
glycan array binding signal (z-score) [19]: -0.547
glycan array binding signal (z-score) [20]: -0.074
glycan array binding signal (z-score) (Neu5Gc(a2-3)Gal(b1-4)Glc): 0.155
glycan array binding signal (z-score) [21]: -0.587
glycan array binding signal (z-score) [22]: -0.199
glycan array binding signal (z-score) [23]: -0.108
glycan array binding signal (z-score) [24]: -0.078
glycan array binding signal (z-score) (Neu5Gc(a2-6)GalNAc): -0.313
glycan array binding signal (z-score) [25]: -1.74
glycan array binding signal (z-score) [26]: -0.529
glycan array binding signal (z-score) [27]: -0.8
glycan array binding signal (z-score) [28]: -0.156
glycan array binding signal (z-score) [29]: -0.009

Source: the supplement of paper PMC8728848
